Results are given in words; binding and its absence hold for the method and conditions named. Binding can be weak; no strength is given.
Target: IL-17RA extracellular domain (ECD) (human)
Experiment: gel filtration, co-elution

- binding: binds
B1: IL-17F (ligand, human)
chain: RKIPKVGHTFFQKPESCPPVPGGSMKLDIGIINENQRVSMSRNIESRSTSPWNYTVTWDPNRYPSEVVQAQCRNLGCINAQGKEDISMNSVPIQQETLVVRRKHQGCSVSFQLEKVLVTVGCTCVTPVIHHVQHHHHHH

Source: patent US20140105855A1
